# Measured values reported in PubChem BioAssay AID540256 (National Center for Advancing Translational Sciences (NCATS), 2011).
# Values joined by “and” are separate entries in the source; they are usually repeats but may differ in a detail not shown here. Equal values may be shown once. The campaign covered roughly 300,000 compounds. About 3,700 (1.2%) were called active. The inconclusive results got no clear call from the source; some entries with a clear call stand among them for comparison. Calls follow the shape of the full dose curve; tested in HEK293 cells. Potencies beside an inconclusive call are fits to weak or partial responses and may not hold up.
# Experiment: qHTS for Inhibitors of binding or entry into cells for Lassa Virus; also: nearly all actives have a fitted effect of over 50% in size
# Conditions: Lassa virus pseudotype entry inhibition, cell reporter; activity change, negative = inhibition: at 37.9 µM (top of the series) unless noted
# % is scaled to controls: 0 for no effect and ±100 for the full control effect; potency is read from the fitted curve at half-maximal effect.
SMILES,"activity change, negative = inhibition",Potency
O=C(Cc1cc(=O)[nH][nH]1)N/N=C/c1cccc(Cl)c1Cl,inactive: -1.58%,
C[C@]12CCC(=O)C=C1C=CC1C2CC[C@]2(C)C(=O)CCC12 (some centres not stated),,"inconclusive: 1.26 µM [inhibitor, single point]"
CCOC(=O)c1ccc([N+](=O)[O-])cc1NC(C)=O,,"inconclusive: 22.4 µM [inhibitor, single point]"
COc1ccc(-n2c(N)c(-c3nc4ccccc4n3C)sc2=S)cc1,,"inconclusive: 6.31 µM [inhibitor, single point]"
CC1CCCN(CCOCCOc2ccc(Br)cc2Cl)C1 (configuration not stated),,"inconclusive: 25.9 µM [inhibitor, single point]"
CCOc1ccc(CN(C)C(=O)NNC(=O)c2ccc(C)cc2)cc1OC,inactive: -10.3% [at 46.1 µM],
CCCCC1CCC(C(=O)NC2CCS(=O)(=O)C2)CC1 (configuration not stated),,"inconclusive: 4.47 µM [inhibitor, full curve, poor fit]"
C(=N\c1nccs1)/c1c[nH]c2ccccc12,inactive: -14%,
CCCCOc1ccc(C(=O)Nc2ccc(N3CCN(C(=O)C(C)C)CC3)cc2)cc1,,"inconclusive: 3.26 µM [inhibitor, partial curve, poor fit]"
COc1ccc(C(=O)c2ccccc2)c2c(O)ccc(C(=O)c3ccccc3)c12,,"inconclusive: 3.55 µM [inhibitor, partial curve, poor fit]"
Cc1cc2oc(C(=O)N(Cc3ccccc3F)C3CCS(=O)(=O)C3)c(C)c2cc1Cl (configuration not stated),,"inconclusive: 35.5 µM [inhibitor, partial curve, poor fit]"
O=C(CSc1n[nH]c(-c2ccccc2O)n1)N1CCOCC1,,"inconclusive: 14.1 µM [activator, single point]"
COc1ccc(CSCCc2n[nH]c(=S)n2-c2ccccc2)cc1,,"inconclusive: 0.794 µM [inhibitor, single point]"
Cc1cccc(N2CC(C(=O)Nc3nnc(SCC(=O)Nc4cc(C)on4)s3)CC2=O)c1 (configuration not stated),inactive: 11.1%,
CCOc1ccc(-c2cc(C(=O)N3CCN(S(=O)(=O)c4cc(Cl)ccc4OC)CC3)[nH]n2)cc1,,"inconclusive: 35.5 µM [inhibitor, single point]"
Cc1ccc(-n2nnnc2SCC(=O)N2CCN(C(=O)c3ccco3)CC2)c(C)c1,,"inconclusive: 22.4 µM [inhibitor, single point]"
CCCSc1nnc2c(n1)OC(c1sccc1C)Nc1ccccc1-2 (configuration not stated),inactive: 28.1% [at 46.1 µM],
Cc1cc2c(NC3CCCCC3)ncnc2s1,,"inconclusive: 15.8 µM [inhibitor, single point]"
COc1ccc(C(=O)CSc2nnc(-c3cnccn3)n2Cc2ccco2)cc1,,"inconclusive: 7.3 µM [activator, single point]"
Cc1nc2ccc(C(=O)Nc3ccc4nc[nH]c4c3)cc2[nH]1,,"inconclusive: 35.5 µM [activator, partial curve, poor fit]"
CCOc1ccc(CCNC(=O)c2ccc(Nc3nc4ccccc4n4nnnc34)cc2)cc1OCC,,"inconclusive: 3.55 µM [inhibitor, partial curve, poor fit]"
O=C(COC(=O)c1ccc([N+](=O)[O-])o1)Nc1cccc(S(=O)(=O)N2CCOCC2)c1,inconclusive: 7.73% [activator],
O=C(c1ccc2c(c1)CCCC2)N1CCN(c2nc3c(F)cccc3s2)CC1,inactive: 0.742% [at 46.1 µM],

SMILES,"activity change, negative = inhibition",Potency
O=C(CN1CCCCCC1)N/N=C/c1cccc(Cl)c1,inactive: 0.507%,
Cc1onc(-c2ccccc2)c1C(=O)OCCOc1cccc(Cl)c1,,"inconclusive: 7.08 µM [inhibitor, partial curve, poor fit]"
Brc1ccc(CN2CCN(Cc3c[nH]c4ccccc34)CC2)cc1,,"inconclusive: 5.62 µM [inhibitor, single point]"
COCCCNCCOCCOc1ccc(Cl)cc1C(C)(C)C,,"inconclusive: 4.61 µM [inhibitor, full curve, poor fit]"
Cc1oc(-c2cccc(Cl)c2)nc1CN1CCC(C(=O)NCCCN2CCN(c3ccc(F)cc3)CC2)CC1,,"inconclusive: 35.5 µM [inhibitor, single point]"
CC(=O)c1ccc(N2CCN(C(=O)C(=O)c3c(C)[nH]c4ccccc34)CC2)cc1,inactive: -1.86%,
COC(=O)c1cc(NCc2c(F)cccc2Cl)ccc1N1CCOCC1,inactive: -35%,
O=C(NC1CCS(=O)(=O)C1)c1cccc(S(=O)(=O)N2CCCCC2)c1 (configuration not stated),inactive: 0.474%,
Cc1c2c(nc3c(C(=O)NC4CC4)cnn13)CCCC2,inactive: 15.4%,
COc1ccc2cc3cc(C(=O)NCCCN4CCc5ccccc5C4)sc3nc2c1,,"inconclusive: 1.26 µM [activator, partial curve, poor fit]"
CCCCNC1=CC(=O)C(=O)c2ccccc21,,"inconclusive: 29.1 µM [inhibitor, single point]"
CN(Cc1ccc(N(C)C)cc1)C(=O)c1cc2ccccc2o1,,"inconclusive: 0.562 µM [inhibitor, single point]"
Fc1ccc(C(OCCN2CCN(CCCc3ccccc3)CC2)c2ccc(F)cc2)cc1,,active: 3.66 µM
CC(C)(C)c1ccc(OCCn2cc(C(=O)c3ccco3)c3ccccc32)cc1,inactive: -7.9% [at 46.1 µM],
CCOC(=O)c1nn(-c2ccc(C)cc2)c(=O)c2c(N)scc12,,"inconclusive: 11.2 µM [inhibitor, single point]"
CCc1cccc(NC(=O)C2CCCN(S(=O)(=O)c3cccs3)C2)c1 (configuration not stated),,"inconclusive: 12.6 µM [inhibitor, partial curve, poor fit] and inconclusive: 7.08 µM [inhibitor, full curve, poor fit]"
O=C(OC1CNC(C#Cc2cc3ncnc(Nc4ccc5c(ccn5Cc5cc(F)ccc5F)c4)c3s2)C1)N1CCOCC1 (configuration not stated),,active: 3.97 µM
Cc1ccc(S(=O)(=O)CC(=O)Nc2ccc(Cl)cn2)cc1,,"inconclusive: 1.12 µM [inhibitor, single point]"
O=C(c1cc2ccccc2cc1O)N1CCN(c2ccccc2O)CC1,,"inconclusive: 3.16 µM [inhibitor, partial curve, poor fit]"
O=C(CSc1ccc(-c2ccc(F)cc2)nn1)NCc1ccco1,inactive: 0.985%,
CCOC(=O)C1=C(CN2CCCCC2)NC(=O)NC1c1cc(C)ccc1C (configuration not stated),,inactive
COc1ccc(C2=NC(c3ccncc3)=Nc3ccc(Br)cc3N2)cc1,,"inconclusive: 11.2 µM [activator, single point]"
COC(=O)C1=CN(c2cc(C)cc(C)c2)C=C(C(=O)OC)C1c1cccc(F)c1,,"inconclusive: 4.47 µM [inhibitor, full curve, poor fit]"

SMILES,"activity change, negative = inhibition",Potency
N[C@@H](CCl)C(=O)O,,"inconclusive: 0.0461 µM [activator, full curve, poor fit]"
Cc1cnc(NC(=O)c2ccc3ncsc3c2)s1,,"inconclusive: 11.2 µM [inhibitor, single point]"
CCCOc1ccc(CSCCNC(=S)Nc2ccccc2)cc1,,"inconclusive: 16.4 µM [inhibitor, single point]"
O=C(NC1(C(F)(F)F)Oc2ccc(Cl)cc2O1)N1CCC2(CC1)OCCO2 (configuration not stated),inactive: -24.6%,
Cc1ccc2nc3sc(C(=O)NCc4ccco4)c(N)c3cc2c1,,"inconclusive: 1 µM [activator, partial curve, poor fit]"
Cc1cc(=O)[nH]c2c(C)cc(S(=O)(=O)NCc3ccccc3)cc12,,"inconclusive: 3.55 µM [inhibitor, single point]"
Cn1cnc([N+](=O)[O-])c1Sc1nc(N)nc2c1ncn2C1OC(CO)C(O)C1O (configuration not stated),,active: 2.82 µM
CN=c1sc2c(n1C)C(=O)c1ccccc1C2=O,,"inconclusive: 11.2 µM [inhibitor, partial curve, poor fit]"
O=c1c2[nH]c3ccccc3c2nc2n1CCCS2,,"inconclusive: 5.62 µM [activator, partial curve, poor fit]"
CCn1cc(C(=O)N2CCCc3ccccc32)c2cc(OC)c(OC)cc2c1=O,inactive: -18.4%,
CCOC(=O)c1c(CSCc2ccccc2)oc2ccc(O)c(CN(C)C)c12,,"inconclusive: 10 µM [inhibitor, partial curve, poor fit]"
Cc1ccc(C(=O)N2CCCC(N3CCN(c4ccccc4F)CC3)C2)s1 (configuration not stated),,"inconclusive: 5.62 µM [activator, single point]"
COc1ccc(OC)c(C2=NO[C@@H]3C(=O)N(c4cc(Cl)ccc4OC)C(=O)[C@H]23)c1,,"inconclusive: 10.3 µM [inhibitor, partial curve, poor fit]"
Cc1ccc(C(=O)N/C(=C/c2ccc(Cl)cc2)C(=O)Nc2cccc(C(=O)O)c2)cc1,,"inconclusive: 14.6 µM [activator, partial curve, poor fit]"
Cc1cc(C)cc(NC(=O)c2cccc(C(=O)Nc3cc(C)cc(C)c3)n2)c1,inconclusive: 0.56% [activator],
Cc1c(C)n(C(=O)CSc2nc3ccccc3[nH]2)c2ccccc12,inactive: -0.0019%,
FC(F)(F)c1cc(-c2ccco2)nc(-n2nnc3ccccc32)n1,,"inconclusive: 32.6 µM [inhibitor, partial curve, poor fit]"
O=C(CNS(=O)(=O)c1ccc([N+](=O)[O-])cc1)N/N=C/c1ccc(O)cc1O,,"inconclusive: 17.8 µM [inhibitor, partial curve, poor fit]"
CCOc1ccc(CCNS(=O)(=O)c2cnc[nH]2)cc1OCC,inactive: 2.17%,
COc1ccc(-n2c(=O)c3c4c(sc3n(Cc3ccccc3Cl)c2=O)CCC4)c(OC)c1,,"inconclusive: 1.58 µM [activator, partial curve, poor fit]"
CN(C(=O)c1sc2nc(N3CCOCC3)c3c(c2c1N)CCCC3)c1ccccc1,,active: 3.55 µM

# Exported with tabs: 2 of the compounds above.
SMILES	activity change, negative = inhibition	Potency
N[C@@H](CCl)C(=O)O		inconclusive: 0.0461 µM [activator, full curve, poor fit]
Cc1cnc(NC(=O)c2ccc3ncsc3c2)s1		inconclusive: 11.2 µM [inhibitor, single point]
